Among all 340,000 compounds or so, about 170 (0.05%) were called active. The shares of active, inactive and inconclusive entries below differ from those in the screen. The call rests on the fitted dose curve; in most records, active means well fitted inhibition curve with a large enough effect in the signal ratio, with a control signal flat (not every such curve was filed as active); inconclusive means small, poorly fitted or top-dose-only effect, or effect the other way, or a change in a side signal; inactive means flat fitted curve, though single readings scatter; the % refers to the signal ratio. Potencies of inconclusive entries are doubtful fits and often do not repeat.
Experiment: qHTS Assay to Find Inhibitors of Chronic Active B-Cell Receptor Signaling;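 on activity change, negative = inhibition: plate controls were basal doxycycline-induced cells for no effect and cells given 10 µM MG132 for full effect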
Settings: ABC-DLBCL IkBa-CBG/CBR reporter, luminescence ratio (green luciferase fused to IkBa over red control in TMD8 lymphoma cells), 4 h; activity change, negative = inhibition: at 46.1 µM (top of the series)
Procedure, shortened: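 Doxycycline induced both beetle luciferases in TMD8 lymphoma cells; IKK-driven degradation limits the IkappaBalpha-fused green signal, while red luminescence normalises for cell number and nonspecific effects. Compounds tested up to 46 uM, 4 hrs.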
Potency means the concentration at half of the fitted maximal effect.

Q: Which activity change, negative = inhibition does the source give for COc1cc(C(=O)Nc2nccs2)c(Br)c(OC)c1OC here?
A: inconclusive: 27.7%

Q: With Cc1cc(NC(=O)CCC2CCCCC2)no1 as the compound, how does the Potency read?
A: inconclusive: 25.9 µM [rising, single point]

Q: For COc1ccccc1C(=O)NCCCn1cc(Br)c(C)n1, which activity change, negative = inhibition is on record?
A: inconclusive: -0.0626%

Q: Which activity change, negative = inhibition does the source give for CCOC(=O)c1c(C)[nH]c(C(=O)COC(=O)CNC(=O)c2ccccc2Cl)c1C here?
A: inconclusive: 13.7%

Q: With COc1ccc(NC(=O)C2CCCCN2N)cc1OCC(C)C (stereo not drawn) as the compound, how does the activity change, negative = inhibition read?
A: inconclusive: 24.2%

Q: For O=C(NCc1cn2ccsc2n1)c1cccc(C(F)(F)F)c1, which activity change, negative = inhibition is on record?
A: inconclusive: 25.7%

Q: Which activity change, negative = inhibition does the source give for Cc1cc(C)cc(C(N)=Nc2cccc(C#N)c2)c1 here?
A: inactive

Q: With O=C(CN1C(=O)CSc2ccc(S(=O)(=O)N3CCCCC3)cc21)NCc1cccnc1 as the compound, how does the activity change, negative = inhibition read?
A: inconclusive: 2.35%

Q: For CCCN(CCC)C1CC(=O)N(Cc2ccccc2)C1=O (stereo not drawn), which activity change, negative = inhibition is on record?
A: inconclusive: -7.09%

Q: Which activity change, negative = inhibition does the source give for CCOC(=O)C1(CCCc2ccccc2)CCN(C(=O)CCc2cnccn2)CC1 here?
A: inconclusive: 4.01%

Q: With CCN(CC)CCCN(C(=O)c1ccc(OC)cc1)c1nc(-c2ccc(OC)cc2)cs1 as the compound, how does the Potency read?
A: inconclusive: 35.5 µM [falling, single point]

Q: Which activity change, negative = inhibition does the source give for COc1cccc(OC)c1-c1nn2c(-c3ccccc3Cl)nnc2s1 here?
A: inconclusive: -1.02%

Q: With Cc1c(C(=O)OCC(=O)NCc2ccc3c(c2)OCO3)cccc1[N+](=O)[O-] as the compound, how does the Potency read?
A: inconclusive: 16.4 µM [falling, partial curve, poor fit]

Q: For O=C1c2ccccc2-c2onc3c(N4CCN(CCO)CC4)cc(N4CCN(C(=O)c5ccco5)CC4)c1c23, which activity change, negative = inhibition is on record?
A: inconclusive: 15.8%

Q: For CC(=O)c1ccc(N2CCN(S(=O)(=O)c3csc(C(N)=O)c3)CC2)cc1, which activity change, negative = inhibition is on record?
A: inactive

Q: For CCCCn1c(SCC(=O)Nc2cccc(OC)c2)nc2ccsc2c1=O, which activity change, negative = inhibition is on record?
A: inconclusive: 17.8%

Q: Which Potency does the source give for Cc1cc(C)c(C)c(S(=O)(=O)NCC(=O)Nc2ccc(F)cc2)c1C here?
A: inconclusive: 7.94 µM [falling, partial curve]

Q: Which Potency does the source give for N=C(N)SCc1nc2ccccn2c1Br here?
A: inconclusive: 23.1 µM [falling, single point]

Q: With O=C(Cc1ccccc1)NCCN1CCCC1 as the compound, how does the activity change, negative = inhibition read?
A: inconclusive: 4.95%

Q: With CCNC(=S)N1CCN(CCN=CC2=C(O)CC(c3ccco3)CC2=O)CC1 (stereo not drawn) as the compound, how does the activity change, negative = inhibition read?
A: inconclusive: 2.63%

Q: With O=C(/C=C/c1c(F)cccc1Cl)c1ccc(O)cc1 as the compound, how does the Potency read?
A: inconclusive: 12.6 µM [falling, single point]

Q: For O=C(Nc1nc(-c2ccccc2)cs1)C1CCCN(S(=O)(=O)c2cccc([N+](=O)[O-])c2)C1 (stereo not drawn), which Potency is on record?
A: inconclusive: 14.6 µM [rising, single point]

Q: For Cn1c(=O)c(=O)n(C)c2cc(S(=O)(=O)NCc3ccc(Cl)cc3)ccc21, which activity change, negative = inhibition is on record?
A: inactive

Q: For CCOc1ccc(C2=Nc3ccc(Br)cc3C(c3ccc(N4CCOCC4)cc3)=NN2)cc1, which activity change, negative = inhibition is on record?
A: inconclusive: 5.59%

Q: With COc1ccc(-n2cc(-c3ccccc3)c3c(NCc4cccc(Cl)c4)ncnc32)cc1 as the compound, how does the activity change, negative = inhibition read?
A: inconclusive: 16%

Q: Which activity change, negative = inhibition does the source give for Cc1c(C(=O)OC(C)C)sc(N)c1C(=O)OC(C)C here?
A: inconclusive: 8.58%

Q: For COc1ccc(N(CC(=O)NC2CCCC2)C(=O)c2ccc(C)s2)c(OC)c1, which activity change, negative = inhibition is on record?
A: inconclusive: -0.505%

Q: Which activity change, negative = inhibition does the source give for COc1cc(/C=N/NC(N)=S)ccc1OC(=O)c1ccc(C)cc1 here?
A: inconclusive: -19.3%

Q: Which Potency does the source give for CN(C)c1ccc(C(CNC(=O)c2cccs2)N(C)C)cc1 (stereo not drawn) here?
A: inconclusive: 17.8 µM [falling, partial curve]

Q: Which Potency does the source give for Cc1c(CCC(=O)NCCCn2ccnc2)c(=O)oc2c(C)c3occ(C(C)(C)C)c3cc12 here?
A: inconclusive: 22.4 µM [falling, single point]

Q: Which activity change, negative = inhibition does the source give for O=C(NCC(=O)N1CCN(Cc2ccccc2)CC1)c1ccc(Br)o1 here?
A: inconclusive: 3.23%

Q: With Cc1cc2c(n1-c1ccc(C(N)=O)cc1)CC(C)(C)CC2=O as the compound, how does the Potency read?
A: inconclusive: 29.1 µM [falling, single point]

Q: With COc1ccc(C(C)=O)cc1COc1ccc([N+](=O)[O-])c(C)c1 as the compound, how does the activity change, negative = inhibition read?
A: inconclusive: 0.36%

Q: For CCOc1ccc(CCNC(=O)COC(=O)c2ccc(C)s2)cc1OCC, which activity change, negative = inhibition is on record?
A: inactive

Q: Which activity change, negative = inhibition does the source give for O=S(=O)(NCc1ccccc1)c1ccccc1NCc1ccc(Cl)cc1 here?
A: inconclusive: 4.35%

Q: For CCn1nnc(NC(=O)c2ccc([N+](=O)[O-])o2)n1, which activity change, negative = inhibition is on record?
A: inactive

Q: Which activity change, negative = inhibition does the source give for CN(CCc1ccccn1)C(=S)Nc1ccc(Cl)cc1Cl here?
A: inconclusive: 7.37%

Q: For Cc1cccc(OC(C)C(=O)N(Cc2cccs2)C2CCS(=O)(=O)C2)c1C (stereo not drawn), which activity change, negative = inhibition is on record?
A: inconclusive: 6.91%

Q: For O=S(=O)(c1cnccc1N1CCN(/N=C/c2ccc(Cl)cc2)CC1)N1CCCCC1, which Potency is on record?
A: inconclusive: 0.184 µM [rising, full curve, poor fit]

Q: Which Potency does the source give for O=C(COc1ccc(/C=N/NC(=O)c2ccc(O)cc2)cc1)Nc1cccc([N+](=O)[O-])c1 here?
A: inconclusive: 3.55 µM [falling, partial curve]

Q: For O=C(CSc1nnc(-c2ccncc2)n1CCc1ccccc1)N1CCCC1, which activity change, negative = inhibition is on record?
A: inactive

Q: With COc1ccccc1NC(=O)Nc1cccc(NC(C)=O)c1 as the compound, how does the Potency read?
A: inconclusive: 20 µM [falling, partial curve]

Q: With Cc1cnc(NC(=O)CCc2ccccc2)s1 as the compound, how does the activity change, negative = inhibition read?
A: inconclusive: -13.5%

Q: For NC(=NCCc1c[nH]c2ccccc12)NS(=O)(=O)c1ccc(F)cc1, which activity change, negative = inhibition is on record?
A: inactive

Q: With Cc1cc(C)n(C(=O)c2ccc(NC(=O)C3CC3)cc2)n1 as the compound, how does the activity change, negative = inhibition read?
A: inconclusive: -0.145%

Q: With COCC1CCCN(C(=O)c2cc(COc3ccc4ncccc4c3)on2)C1 (stereo not drawn) as the compound, how does the activity change, negative = inhibition read?
A: inconclusive: -2.47%

Q: With Cc1ccc2oc(=O)c3cc(C(=O)NCCN4CCN(C)CC4)sc3c2c1 as the compound, how does the activity change, negative = inhibition read?
A: inactive

Q: With CC(Sc1nc(-c2ccccc2)nc2c1COC(C)(C)C2)C(=O)N1CCOCC1 (stereo not drawn) as the compound, how does the Potency read?
A: inconclusive: 1.84 µM [falling, partial curve, poor fit]

Q: With CCOc1cc(CN2CCN(CCOCCO)CC2)ccc1OC as the compound, how does the activity change, negative = inhibition read?
A: inconclusive: -10.7%

Q: With COc1ccc(Nc2nc(N)nc(CSC(=S)N3CCCCC3)n2)cc1 as the compound, how does the activity change, negative = inhibition read?
A: inconclusive: -19.3%

Q: Which activity change, negative = inhibition does the source give for CCOc1cc(C(=O)Nc2ccc(S(=O)(=O)NC3=NCCCCC3)cc2)cc(OCC)c1OCC here?
A: inconclusive: -24.3%

Q: With COc1ccccc1Nc1ncnc2c1nc1n2CCCC1 as the compound, how does the activity change, negative = inhibition read?
A: inconclusive: 20.1%

Q: With Cc1cc(-n2cnnn2)ccc1C(C)C as the compound, how does the activity change, negative = inhibition read?
A: inconclusive: 1.35%

Q: With CCN(CC)CCN(C)C(=O)c1ccc(OC2CCN(C(=O)C3CC3)CC2)cc1 as the compound, how does the activity change, negative = inhibition read?
A: inconclusive: 4.65%

Q: For NC(=O)C1CCN(c2nc(-c3ccccc3C(F)(F)F)cs2)CC1, which activity change, negative = inhibition is on record?
A: inactive

Q: With COc1ccc(CCNc2nc(=S)[nH]c3cc(OC)c(OC)cc23)cc1OC as the compound, how does the activity change, negative = inhibition read?
A: inactive

Q: With CC(C)C(NCC(=O)Nc1ccccc1C(=O)NC1CC1)c1ccccc1 (stereo not drawn) as the compound, how does the activity change, negative = inhibition read?
A: inactive

Q: With CCC(C)n1c(SCC(=O)Nc2ccccc2C(F)(F)F)nc2ccsc2c1=O (stereo not drawn) as the compound, how does the activity change, negative = inhibition read?
A: inconclusive: 3.73%

Q: Which activity change, negative = inhibition does the source give for CCc1nc(Nc2ccc3c(c2)OCO3)c2oc3ccccc3c2n1 here?
A: inconclusive: -4.49%

Q: For COc1ccc(NS(=O)(=O)c2ccc(NC(=S)NC(=O)c3cccc(F)c3)cc2)nn1, which activity change, negative = inhibition is on record?
A: inconclusive: -0.952%

Q: For O=C(CNC(=O)c1ccco1)OCc1ccccc1F, which activity change, negative = inhibition is on record?
A: inconclusive: 5.7%

Q: For CCCCn1c(SCc2cc(=O)n3ccsc3n2)nc2cc(C(=O)OC)ccc2c1=O, which activity change, negative = inhibition is on record?
A: inconclusive: -0.965%

Q: Which activity change, negative = inhibition does the source give for N#Cc1nc(COc2ccc(Br)cc2)oc1NCCCn1ccnc1 here?
A: inconclusive: -2.56%

Q: Which Potency does the source give for O=C(CSc1ccc(Cl)cc1)Nc1cccc(NC(=O)c2ccco2)c1 here?
A: inconclusive: 2.51 µM [falling, full curve]

Q: Which activity change, negative = inhibition does the source give for O=C(NCCc1ccccc1)C1COc2ccccc2O1 (stereo not drawn) here?
A: inconclusive: 6.23%

Q: With COC(=O)C1=C(N)Oc2cc(C)n(CCCn3ccnc3)c(=O)c2C1c1ccc(Cl)cc1 (stereo not drawn) as the compound, how does the activity change, negative = inhibition read?
A: inconclusive: -9.99%

Q: For CC(C)c1ccc2oc(=O)cc(CN3CCN(c4ccccc4)CC3)c2c1, which activity change, negative = inhibition is on record?
A: inactive

Q: With O=C(c1ccc(Cl)c(S(=O)(=O)NCc2cccnc2)c1)N1CCCC1 as the compound, how does the activity change, negative = inhibition read?
A: inconclusive: 5.34%

Q: For CCCCNC(=O)Nc1nnc(C(C)(C)C)s1, which activity change, negative = inhibition is on record?
A: inconclusive: -2.07%

Q: With CCCCC/C=C\C/C=C\C/C=C\CCCCC(=O)O as the compound, how does the activity change, negative = inhibition read?
A: inactive

Q: For CSc1ccccc1C(=O)C1CCCN(C(=O)CCc2cccnc2)C1 (stereo not drawn), which Potency is on record?
A: inconclusive: 35.5 µM [falling, single point]

Q: For Cc1cc(C)n2nc(S(=O)(=O)N(C)Cc3ccccc3)nc2n1, which activity change, negative = inhibition is on record?
A: inconclusive: 1.95%

Q: For O=C(Cn1cnc2c(NCc3ccccc3)ncnc21)NCCN1CCOCC1, which activity change, negative = inhibition is on record?
A: inactive

Q: Which activity change, negative = inhibition does the source give for Cc1cc(NCc2ccco2)nc(N2CCC(C(=O)NC3CCCCC3)CC2)n1 here?
A: inactive

Q: For CCCc1ccc(-c2cc(C(=O)N3CCN(c4ccccn4)CC3)c3ccccc3n2)cc1, which activity change, negative = inhibition is on record?
A: inactive

Q: Which activity change, negative = inhibition does the source give for CCCCCn1c(=N)n(CC(O)COc2ccccc2OC)c2ccccc21 (stereo not drawn) here?
A: inconclusive: -11.6%

Q: For Cc1ccc2[nH]c(=O)c(-c3noc(CC(C)C)n3)cc2c1, which activity change, negative = inhibition is on record?
A: inconclusive: 13.7%

Q: For O=C(Nc1ccc(-c2nc3cccnc3s2)cc1)c1ccc(Br)o1, which activity change, negative = inhibition is on record?
A: inconclusive: 9.48%

Q: Which Potency does the source give for Cc1ccc(C(=O)c2coc3c2C(=O)C(=O)c2ccccc2-3)cc1 here?
A: inconclusive: 29.1 µM [falling, single point]

Q: For CC(=O)Oc1ccc(C(=O)Nc2cccc(NC(=O)c3ccco3)c2)cc1, which Potency is on record?
A: inconclusive: 12.6 µM [falling, partial curve]

Q: Which activity change, negative = inhibition does the source give for O=Cc1cn[nH]c1-c1ccccc1 here?
A: inactive

Q: With O=C(CCC(=O)OCC(=O)c1ccc(Br)cc1)Nc1cccc2cccnc12 as the compound, how does the Potency read?
A: inconclusive: 10 µM [falling, partial curve, poor fit]

Q: Which activity change, negative = inhibition does the source give for COc1cc(/C=C2\CCC(C3CCCC3)C2=O)cc(OC)c1OC (stereo not drawn) here?
A: inconclusive: -4.39%

Reference: PubChem BioAssay AID493014 (National Center for Advancing Translational Sciences (NCATS), 2011)
